Our source for the outcome and AC50 values is PubChem BioAssay (EPA / NIEHS).

Chains of the proteins cited; added tags and fusions are not shown. Lines headed by an entry give the natural chain unless they say otherwise; changes in a name come on top.
UniProt P15204: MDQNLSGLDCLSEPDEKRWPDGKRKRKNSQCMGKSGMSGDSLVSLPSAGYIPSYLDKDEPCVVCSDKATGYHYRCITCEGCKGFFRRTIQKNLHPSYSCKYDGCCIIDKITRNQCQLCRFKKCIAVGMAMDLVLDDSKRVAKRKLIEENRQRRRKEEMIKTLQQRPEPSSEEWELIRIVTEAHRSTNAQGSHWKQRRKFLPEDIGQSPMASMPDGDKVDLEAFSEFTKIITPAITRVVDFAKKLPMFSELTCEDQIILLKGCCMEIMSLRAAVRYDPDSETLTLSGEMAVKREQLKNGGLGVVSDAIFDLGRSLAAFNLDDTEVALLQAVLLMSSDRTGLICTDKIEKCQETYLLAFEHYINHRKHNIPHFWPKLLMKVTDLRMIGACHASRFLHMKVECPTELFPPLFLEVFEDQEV

Read-out in assay [1]: Plasminogen activator inhibitor-1 (PAI1), SERPINE1 (gene 5054)
Put plainly: BSK_hDFCGF_PAI1: BioMAP Diversity Plus: hDFCGF Assay for Plasminogen activator inhibitor-1 (PAI1) Biomarker Activity (AID 2283066). To be noted: actives raise or lower the signal; primary human foreskin fibroblasts. In short, it runs like this: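 Human skin fibroblast cultures receive chemical for 24 h before PAI-1 is measured by ELISA; signal changes are fitted bidirectionally against DMSO-treated wells.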

Read-out in assay [2]: CD69, CD69 (gene 969)
In words: BSK_SAg_CD69: BioMAP Diversity Plus: SAg Assay for CD69 Biomarker Activity (AID 2283089).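 Also: cell surface CD69 protein quantified by ELISA with fluorescence detection.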 The note with it: actives raise or lower the signal; primary human HUVEC with PBMC. In short, it runs like this: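 Values derive from bidirectional fitting relative to DMSO vehicle. Cells: umbilical vein endothelium plus peripheral blood mononuclear cells, treated 24 h before fluorescent ELISA for CD69.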

Read-out in assay [3]: ATP-citrate lyase (ACLY), ACLY (gene 47)
Put plainly: LTEA_HepaRG_ACLY: Life Technologies and Expression Analysis (LTEA) Assay for ATP-citrate lyase (ACLY) using HepaRG (AID 2283466). To be noted: actives raise or lower the signal; mRNA level, 48 h. The essentials:
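ACLY expression changes in human HepaRG liver cells are quantified by qRT-PCR after 48 h exposure to test chemicals (maximum 100 uM, half-log steps). Values are fitted in both directions relative to 0.5% DMSO vehicle.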

Read-out in assay [4]: CYP2C8 (gene 1558)
Put plainly: LTEA_HepaRG_CYP2C8: Life Technologies and Expression Analysis (LTEA) Assay for CYP2C8 using HepaRG (AID 2283483). To be noted: actives raise or lower the signal; mRNA level, 48 h. In short, it runs like this: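 This is a transcriptional endpoint in HepaRG cultures: 48 h exposure, highest concentration 100 uM. CYP2C8 mRNA is quantified by TaqMan qRT-PCR.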

Read-out in assay [5]: MYC, MYC (gene 4609)
Put plainly: LTEA_HepaRG_MYC: Life Technologies and Expression Analysis (LTEA) Assay for MYC using HepaRG (AID 2283518). The note with it: actives raise or lower the signal; mRNA level, 48 h. In short, it runs like this: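 HepaRG, ~100,000 cells/well, collagen I; 48 h plating; serum-free induction medium; 48 h dosing, duplicate, 100 uM top, half-log, 0.5% DMSO; total RNA → qRT-PCR MYC; gain/loss fit vs DMSO.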

Assay [6] has as its target frog Thyroid hormone Receptor alpha (TRa), thra-a (gene 397942) (UniProt P15204). Put plainly: ATG_frTRa_XSP1: Attagene TRANS-FACTORIAL Multi-Species (XSP1) HepG2 Assay for frog Thyroid hormone Receptor alpha (TRa) (AID 2283804; active = hit-call score of the fitted dose curve at least 0.9, where 1 is the maximum). The essentials:
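Reporter transcript induction, measured by RT-PCR with 6-FAM labelling and capillary electrophoresis, 24 hr after dosing transiently transfected HepG2 cells expressing a frog TRa-GAL4 fusion; medium contained 3 nM 6-alpha-fluorotestosterone; increase over DMSO scored.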

Assay [7] can be described thus: CCTE_Shafer_MEA_acute_AB: CCTE's Alamar Blue Assay for Cytotoxicity in the Neural Acute Assay, Shafer Lab (AID 2284069; active = hit-call score of the fitted dose curve at least 0.9, where 1 is the maximum;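 also: active compounds lower the viability signal compared with DMSO wells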). In short, it runs like this:
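Cytotoxicity endpoint for acute MEA exposures of primary rat cortical neurons on day 13 or 15. Resazurin reduction is read fluorescently at 544/590 nm, with DMSO as the negative-control baseline.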
Background: Resazurin is reduced to fluorescent resorufin, in cell work by metabolically active cells.

Assay [8] in a line: BSK_hDFCGF_SRB: Viability Assessment in the BioMAP Diversity Plus: hDFCGF Assay (AID 2283061).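 Also: cells exposed to compound for 24 h before the read.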 To be noted: primary human foreskin fibroblasts. In short, it runs like this:
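Readout is SRB absorbance at 560 nm, reflecting total protein in parallel cultures of human foreskin fibroblasts harvested 24 h after chemical dosing. Activity was fitted bidirectionally relative to DMSO.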

Read-out in assay [9]: Collagen III, COL3A1 (gene 1281)
Put plainly: BSK_hDFCGF_CollagenIII: BioMAP Diversity Plus: hDFCGF Assay for Collagen III Biomarker Activity (AID 2283056). The note with it: actives raise or lower the signal; primary human foreskin fibroblasts. In short, it runs like this: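 ELISA read-out of collagen III from human skin fibroblast cultures sampled 24 h post-dosing. Values were derived by bidirectional fitting relative to the DMSO vehicle control.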

Read-out in assay [10]: Bcl-2 (BAD) gene, BAD (gene 572)
In words: LTEA_HepaRG_BAD: Life Technologies and Expression Analysis (LTEA) Assay for Bcl-2 (BAD) gene using HepaRG (AID 2283469). The note with it: actives raise or lower the signal; mRNA level, 48 h. In short, it runs like this:
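Activity values reflect up- or down-regulation of BAD mRNA in human HepaRG hepatic cells treated 48 h in serum-free medium, with eight-point half-log dosing capped at 100 uM and 0.5% DMSO vehicle.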

The nature of assay [11]: Tanguay_ZF_120hpf_SNOU_legacy: (Legacy) Oregon State University Tanguay Lab 120 Hour Post-fertilization zebrafish Assay for Snout Malformation (AID 2283637; active = hit-call score of the fitted dose curve at least 0.9, where 1 is the maximum). The essentials: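 Dechorionated zebrafish, individually housed from 6 hpf in covered, sealed wells at 28C with 0.64% DMSO vehicle, were examined at 120 hpf for snout malformation. Responses were binary and analysed positive-direction relative to DMSO.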

A short description of assay [12]: Tanguay_ZF_120hpf_NC_legacy: (Legacy) Oregon State University Tanguay Lab 120 Hour Post-fertilization zebrafish Assay for Notochord and Tail Malformation (AID 2283656; active = hit-call score of the fitted dose curve at least 0.9, where 1 is the maximum). The essentials: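 Binary notochord-distortion calls, made by brightfield inspection, form the read-out; activity is fitted in the positive direction against DMSO. Exposure ran statically from 6 to 120 hpf at 28C with 0.64% DMSO.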

Assay [13] in a line: ACEA_ER_AUC_viability: ACEA Biosciences xCELLigence Real-Time Cell Analysis on Estrogen Receptor Agonism for Viability (AID 2283782; active = hit-call score of the fitted dose curve at least 0.9, where 1 is the maximum;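 also: hit means loss of impedance signal meaning reduced cell growth or viability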). In short, it runs like this: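 Continuous-exposure impedance cell analysis uses T-47D cells in charcoal-stripped serum, eight 1:4 dilutions topping at 100 uM final, biological duplicate. Area under the growth curve at 80 h is fitted against DMSO baseline.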

Read-out in assay [14]: Interleukin-1 alpha (IL1a), IL1A (gene 3552)
In words: BSK_KF3CT_IL1a: BioMAP Diversity Plus: KF3CT Assay for Interleukin-1 alpha (IL1a) Biomarker Activity (AID 2283070). The note with it: actives raise or lower the signal; primary human keratinocytes with fibroblasts. In short, it runs like this: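 Readout is IL-1a level by ELISA, compared bidirectionally with DMSO as baseline. Cells: human keratinocytes co-cultured with foreskin fibroblasts, harvested 24 h post-dose.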

Read-out in assay [15]: Interleukin-8 (IL8), CXCL8 (gene 3576)
Put plainly: BSK_hDFCGF_IL8: BioMAP Diversity Plus: hDFCGF Assay for Interleukin-8 (IL8) Biomarker Activity (AID 2283058). To be noted: actives raise or lower the signal; primary human foreskin fibroblasts. The essentials: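 Cells used are human skin primary fibroblasts. Chemical is added, cultures run 24 h, then IL-8 is quantified by ELISA, and gain or loss versus DMSO control is fitted in both directions.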

Read-out in assay [16]: TIMP metallopeptidase inhibitor 2 (TIMP2), TIMP2 (gene 7077)
In words: BSK_KF3CT_TIMP2: BioMAP Diversity Plus: KF3CT Assay for TIMP metallopeptidase inhibitor 2 (TIMP2) Biomarker Activity (AID 2283071). The note with it: actives raise or lower the signal; primary human keratinocytes with fibroblasts. In short, it runs like this:
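Measurements come from ELISA detection of TIMP-2 at 24 hours in a dosed human keratinocyte and foreskin fibroblast co-culture. DMSO serves as negative control and baseline.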

Structures are written as SMILES. For some assays here: This list holds what a sample rich in hits left over. Inconclusive results are not listed. Only a part is listed here, and it is no random draw. Activity calls are given as the source filed them. The calls were made as follows, unless noted: active = hit-call score of the fitted dose curve at least 0.9, where 1 is the maximum; inactive = score below 0.9.

The AC50 is the midpoint of the concentration-response curve, whichever way the signal moves. Turning to `CCc1cccc(C)c1N(C(=O)CCl)C(C)COC` (configuration not stated), the outcome in assay [1], in [3], in [4], in assay [5], in [6] and in [7] was inactive. Also, the AC50 in [2] is active: 12.8 µM.

As to `O=C(CCl)NCO`, the result in [8] was inactive.

With `C[C@@H]1C[C@@H]([C@H](O)CC2CC(=O)NC(=O)C2)C(=O)[C@@H](C)C1`, the AC50 is active: 1.26 µM in assay [9], active: 6.9 µM in assay [8] and active: 1.36 µM in assay [13]. The outcome in assay [10], in [11] and in [12] was inactive.

Consider `Clc1ccccc1Cl`, for which, in assay [14], the result was inactive.

In the case of `CCCCCCCCCCCCc1cccc(S(=O)(=O)O)c1`, the half-maximal activity concentration (AC50) in assay [15] is active: 31.9 µM; in assay [16], active: 14.7 µM.
